Our source for the binding values is PMC4627338.

Chains of the proteins cited; added tags and fusions are not shown.
UniProt Q99594: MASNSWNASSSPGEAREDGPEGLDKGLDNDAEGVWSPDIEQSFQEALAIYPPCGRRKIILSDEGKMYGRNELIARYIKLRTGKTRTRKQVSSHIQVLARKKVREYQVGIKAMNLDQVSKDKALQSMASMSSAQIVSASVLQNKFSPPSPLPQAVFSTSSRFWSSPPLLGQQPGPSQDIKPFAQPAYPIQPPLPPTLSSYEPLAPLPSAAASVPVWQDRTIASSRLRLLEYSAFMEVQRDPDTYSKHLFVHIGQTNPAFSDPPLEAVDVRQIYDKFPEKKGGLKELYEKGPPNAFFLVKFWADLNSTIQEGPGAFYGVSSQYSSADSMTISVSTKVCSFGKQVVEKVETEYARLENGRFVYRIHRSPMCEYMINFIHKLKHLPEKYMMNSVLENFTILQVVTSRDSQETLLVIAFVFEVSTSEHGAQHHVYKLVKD
UniProt Q15561: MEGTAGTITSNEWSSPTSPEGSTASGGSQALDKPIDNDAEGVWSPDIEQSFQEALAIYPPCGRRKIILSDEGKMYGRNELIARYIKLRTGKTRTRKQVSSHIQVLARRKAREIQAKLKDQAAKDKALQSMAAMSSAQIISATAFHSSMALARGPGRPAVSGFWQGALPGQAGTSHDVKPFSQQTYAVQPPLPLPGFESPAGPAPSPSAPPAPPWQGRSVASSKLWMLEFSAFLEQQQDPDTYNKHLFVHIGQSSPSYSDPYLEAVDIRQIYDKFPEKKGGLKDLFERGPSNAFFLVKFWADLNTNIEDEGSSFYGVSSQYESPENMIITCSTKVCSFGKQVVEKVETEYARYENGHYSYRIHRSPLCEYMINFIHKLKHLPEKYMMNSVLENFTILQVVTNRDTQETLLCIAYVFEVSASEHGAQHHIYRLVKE
UniProt Q15562: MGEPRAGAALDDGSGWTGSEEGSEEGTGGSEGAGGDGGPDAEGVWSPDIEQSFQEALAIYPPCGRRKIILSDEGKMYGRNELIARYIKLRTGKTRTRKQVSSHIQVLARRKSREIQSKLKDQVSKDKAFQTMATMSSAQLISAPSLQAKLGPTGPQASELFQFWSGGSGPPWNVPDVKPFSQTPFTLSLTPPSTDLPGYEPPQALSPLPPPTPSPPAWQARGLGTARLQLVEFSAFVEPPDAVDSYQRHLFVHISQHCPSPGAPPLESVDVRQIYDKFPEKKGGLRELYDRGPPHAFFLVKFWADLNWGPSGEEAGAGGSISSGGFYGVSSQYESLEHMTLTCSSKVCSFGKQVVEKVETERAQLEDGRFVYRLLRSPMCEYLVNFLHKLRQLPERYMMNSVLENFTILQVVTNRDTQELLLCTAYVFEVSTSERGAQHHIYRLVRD
UniProt Q13887: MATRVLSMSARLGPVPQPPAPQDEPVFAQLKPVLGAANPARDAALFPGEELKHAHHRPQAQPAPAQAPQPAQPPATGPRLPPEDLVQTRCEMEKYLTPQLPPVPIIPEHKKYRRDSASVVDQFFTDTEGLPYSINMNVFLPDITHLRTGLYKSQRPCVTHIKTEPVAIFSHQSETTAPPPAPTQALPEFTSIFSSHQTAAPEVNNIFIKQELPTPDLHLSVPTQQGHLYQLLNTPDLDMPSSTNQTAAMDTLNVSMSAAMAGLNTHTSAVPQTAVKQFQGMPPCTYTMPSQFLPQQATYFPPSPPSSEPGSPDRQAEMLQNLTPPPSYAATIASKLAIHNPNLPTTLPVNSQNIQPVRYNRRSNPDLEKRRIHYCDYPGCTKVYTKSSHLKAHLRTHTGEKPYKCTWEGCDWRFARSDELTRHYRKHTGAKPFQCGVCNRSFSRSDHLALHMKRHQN

Assay in all cases: co-IP; HEK293FT cells transfected with Flag-tagged TEADs and KLF5; TEADs immunoprecipitated with the anti-Flag antibody, exogenous KLF5 looked for in the precipitate
Assay [1] deals with Flag-TEAD3 (UniProt Q99594).
In assay [2] the target is Flag-TEAD4 (human) (UniProt Q15561).
For assay [3], the target named is Flag-TEAD2 (UniProt Q15562).

Results are given in words; binding and its absence hold for the method and conditions named. Binding seen in cells or lysates may run through a third protein. Some entries that bind do so weakly or less than the wild type.

As to KLF5 (from UniProt Q13887 1-457), the binding entry in assay [1] was “no binding”; in assay [2] it was “binds”; in assay [3], “no binding”.
